± gives the standard deviation of the averaged measurements. The list shows a part of the results.
Columns and labels:
Assay in all cases: NP40-soluble protein abundance relative to vehicle (solubility fold change) (ratio); higher = more soluble protein in presence of GTP
PLD3 = target: T1, PLD3 (UniProt Q8IV08)
T1 sequence (whole entry): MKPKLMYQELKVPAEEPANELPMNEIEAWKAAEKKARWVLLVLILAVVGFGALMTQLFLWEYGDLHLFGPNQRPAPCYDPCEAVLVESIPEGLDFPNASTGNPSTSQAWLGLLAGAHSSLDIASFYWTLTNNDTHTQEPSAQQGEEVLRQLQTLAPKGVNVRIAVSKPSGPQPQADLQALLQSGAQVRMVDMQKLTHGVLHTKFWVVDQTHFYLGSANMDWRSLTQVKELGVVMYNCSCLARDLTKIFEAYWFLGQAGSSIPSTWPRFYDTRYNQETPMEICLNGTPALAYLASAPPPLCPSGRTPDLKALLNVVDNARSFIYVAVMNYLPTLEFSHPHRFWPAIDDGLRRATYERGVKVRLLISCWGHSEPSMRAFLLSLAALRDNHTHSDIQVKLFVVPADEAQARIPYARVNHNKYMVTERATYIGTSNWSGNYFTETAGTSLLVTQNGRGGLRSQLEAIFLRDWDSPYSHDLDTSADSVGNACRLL
Method in brief: (§1)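 Across three independent experiments, values are fold changes against the detergent-processed vehicle for each replicate, based on vsn-normalised intensities. The samples were Jurkat crude lysate treated with eight concentrations (0.1 to 10 mM) for 10 min at room temperature and then 3 min at 37 °C. Lysate was solubilised with 0.8% NP40 and benzonase, ultracentrifuged, and the supernatant analysed by TMT-labelled LC-MS/MS.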

RBM15B = target: T2, RBM15B (UniProt Q8NDT2)
T2 sequence (whole entry): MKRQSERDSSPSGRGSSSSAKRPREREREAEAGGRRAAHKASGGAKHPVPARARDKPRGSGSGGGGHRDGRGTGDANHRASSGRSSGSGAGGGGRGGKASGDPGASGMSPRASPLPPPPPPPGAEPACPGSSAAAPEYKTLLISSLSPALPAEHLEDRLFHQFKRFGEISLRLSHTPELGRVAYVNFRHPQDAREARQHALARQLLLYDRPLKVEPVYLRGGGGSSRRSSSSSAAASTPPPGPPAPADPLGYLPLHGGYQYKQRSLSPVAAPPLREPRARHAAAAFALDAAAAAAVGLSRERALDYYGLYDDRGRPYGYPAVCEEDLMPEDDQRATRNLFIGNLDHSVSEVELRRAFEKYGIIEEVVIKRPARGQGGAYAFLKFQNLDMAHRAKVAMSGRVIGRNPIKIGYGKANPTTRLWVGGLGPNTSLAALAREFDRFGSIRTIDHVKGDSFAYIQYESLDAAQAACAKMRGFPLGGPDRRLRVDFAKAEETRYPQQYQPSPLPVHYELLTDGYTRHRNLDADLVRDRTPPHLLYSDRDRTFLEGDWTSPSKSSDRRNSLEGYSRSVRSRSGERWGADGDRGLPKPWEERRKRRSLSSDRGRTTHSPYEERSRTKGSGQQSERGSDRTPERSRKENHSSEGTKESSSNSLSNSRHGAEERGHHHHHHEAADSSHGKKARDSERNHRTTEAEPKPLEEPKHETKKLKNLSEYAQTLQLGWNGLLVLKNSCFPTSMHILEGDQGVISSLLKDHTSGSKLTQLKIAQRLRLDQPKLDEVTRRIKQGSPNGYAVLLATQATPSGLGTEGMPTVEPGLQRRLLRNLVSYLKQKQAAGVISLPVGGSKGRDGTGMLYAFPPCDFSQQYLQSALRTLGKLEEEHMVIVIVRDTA
Method in brief: as §1

SPATS2 = target: T3, SPATS2 (UniProt Q86XZ4)
T3 sequence (whole entry): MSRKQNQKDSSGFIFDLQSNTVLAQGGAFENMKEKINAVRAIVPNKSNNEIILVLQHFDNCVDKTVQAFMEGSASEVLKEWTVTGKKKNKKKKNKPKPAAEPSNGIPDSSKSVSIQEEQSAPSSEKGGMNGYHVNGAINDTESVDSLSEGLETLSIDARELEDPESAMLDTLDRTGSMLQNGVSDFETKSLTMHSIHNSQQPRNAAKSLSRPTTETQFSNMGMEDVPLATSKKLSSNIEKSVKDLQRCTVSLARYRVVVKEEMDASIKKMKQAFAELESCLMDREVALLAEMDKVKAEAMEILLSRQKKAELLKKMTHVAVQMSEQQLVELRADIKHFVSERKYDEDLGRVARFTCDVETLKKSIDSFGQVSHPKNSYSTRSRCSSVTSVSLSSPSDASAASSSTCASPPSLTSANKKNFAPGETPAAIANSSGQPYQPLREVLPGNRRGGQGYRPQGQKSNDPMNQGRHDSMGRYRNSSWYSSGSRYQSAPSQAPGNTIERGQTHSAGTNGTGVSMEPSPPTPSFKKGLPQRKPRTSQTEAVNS
Method in brief: as §1

TBC1D10C = target: T4, TBC1D10C (UniProt Q8IV04)
T4 sequence (whole entry): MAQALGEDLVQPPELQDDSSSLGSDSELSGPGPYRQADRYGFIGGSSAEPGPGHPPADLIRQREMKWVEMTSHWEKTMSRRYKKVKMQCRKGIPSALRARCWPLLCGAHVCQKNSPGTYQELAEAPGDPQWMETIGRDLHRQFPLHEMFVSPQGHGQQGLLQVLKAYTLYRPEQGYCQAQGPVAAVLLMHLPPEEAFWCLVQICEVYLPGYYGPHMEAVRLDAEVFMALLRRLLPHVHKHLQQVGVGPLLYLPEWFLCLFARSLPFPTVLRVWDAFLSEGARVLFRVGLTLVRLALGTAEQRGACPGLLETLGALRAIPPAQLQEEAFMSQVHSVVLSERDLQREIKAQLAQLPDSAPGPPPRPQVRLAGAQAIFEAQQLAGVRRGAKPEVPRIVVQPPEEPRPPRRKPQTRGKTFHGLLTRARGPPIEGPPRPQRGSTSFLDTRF
Method in brief: as §1

TTC9C = target: T5, TTC9C (UniProt Q8N5M4)
T5 sequence (whole entry): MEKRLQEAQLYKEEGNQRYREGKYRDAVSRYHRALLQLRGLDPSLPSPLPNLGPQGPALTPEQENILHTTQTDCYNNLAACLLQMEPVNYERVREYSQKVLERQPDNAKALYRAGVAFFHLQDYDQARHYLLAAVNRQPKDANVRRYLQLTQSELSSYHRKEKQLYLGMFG
Method in brief: as §1

[1] = target: T6, UniProt Q8IWR0 and related entries
T6 sequence (whole entry): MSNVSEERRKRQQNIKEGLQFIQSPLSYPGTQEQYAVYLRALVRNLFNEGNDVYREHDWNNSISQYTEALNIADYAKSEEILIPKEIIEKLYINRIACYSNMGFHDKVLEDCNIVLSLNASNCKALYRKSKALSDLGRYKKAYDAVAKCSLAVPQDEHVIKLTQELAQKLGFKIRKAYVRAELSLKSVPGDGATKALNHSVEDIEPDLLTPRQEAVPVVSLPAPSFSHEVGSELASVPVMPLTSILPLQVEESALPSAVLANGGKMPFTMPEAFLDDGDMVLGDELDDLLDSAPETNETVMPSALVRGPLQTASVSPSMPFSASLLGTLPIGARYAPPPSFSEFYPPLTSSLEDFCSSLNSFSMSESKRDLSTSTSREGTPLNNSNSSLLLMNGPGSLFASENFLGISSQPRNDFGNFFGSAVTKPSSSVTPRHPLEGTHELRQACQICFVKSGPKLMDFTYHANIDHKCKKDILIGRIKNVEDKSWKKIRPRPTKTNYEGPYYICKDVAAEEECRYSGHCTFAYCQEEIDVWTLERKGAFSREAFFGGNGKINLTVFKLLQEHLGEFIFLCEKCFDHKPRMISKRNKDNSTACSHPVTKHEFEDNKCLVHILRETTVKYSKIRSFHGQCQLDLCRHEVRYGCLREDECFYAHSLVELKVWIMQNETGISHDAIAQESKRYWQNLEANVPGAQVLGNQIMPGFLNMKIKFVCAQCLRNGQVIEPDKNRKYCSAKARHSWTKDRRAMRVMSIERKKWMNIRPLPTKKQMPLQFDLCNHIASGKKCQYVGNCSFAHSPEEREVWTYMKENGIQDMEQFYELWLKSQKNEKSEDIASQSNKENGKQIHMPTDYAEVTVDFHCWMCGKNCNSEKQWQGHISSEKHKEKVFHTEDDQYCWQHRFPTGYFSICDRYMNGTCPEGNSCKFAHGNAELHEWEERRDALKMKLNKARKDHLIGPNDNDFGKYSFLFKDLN
Method in brief: as §1

Which NP40-soluble protein abundance (PLD3; concentration: 1mM) does the source give for Nc1nc2c(ncn2[C@@H]2O[C@H](COP(=O)(O)OP(=O)(O)OP(=O)(O)O)[C@@H](O)[C@H]2O)c(=O)[nH]1 [guanosine triphosphate] here?
The NP40-soluble protein abundance was 0.929 ± 0.026.

What about the NP40-soluble protein abundance (PLD3; concentration: 2mM) of the same compound?
Its NP40-soluble protein abundance is 0.8918 ± 0.0076.

What about the NP40-soluble protein abundance (PLD3; concentration: 4mM) of the same compound?
The NP40-soluble protein abundance was 1.01 ± 0.069.

And the NP40-soluble protein abundance (PLD3; concentration: 6mM)?
Its NP40-soluble protein abundance is 0.895 ± 0.042.

And the NP40-soluble protein abundance (PLD3; concentration: 8mM)?
Its NP40-soluble protein abundance is 0.872 ± 0.048.

What about the NP40-soluble protein abundance (PLD3; concentration: 10mM) of the same compound?
Its NP40-soluble protein abundance is 0.889 ± 0.026.

What about the NP40-soluble protein abundance (RBM15B; concentration: 0.1mM) of the same compound?
Its NP40-soluble protein abundance is 1.02 ± 0.012.

And the NP40-soluble protein abundance (RBM15B; concentration: 0.5mM)?
Its NP40-soluble protein abundance is 1.09 ± 0.033.

What about the NP40-soluble protein abundance (RBM15B; concentration: 1mM) of the same compound?
The NP40-soluble protein abundance was 1.09 ± 0.04.

What about the NP40-soluble protein abundance (RBM15B; concentration: 2mM) of the same compound?
Its NP40-soluble protein abundance is 1.19 ± 0.032.

And the NP40-soluble protein abundance (RBM15B; concentration: 4mM)?
Its NP40-soluble protein abundance is 1.2 ± 0.068.

What about the NP40-soluble protein abundance (RBM15B; concentration: 6mM) of the same compound?
Its NP40-soluble protein abundance is 1.28 ± 0.062.

And the NP40-soluble protein abundance (RBM15B; concentration: 8mM)?
The NP40-soluble protein abundance was 1.3 ± 0.11.

What about the NP40-soluble protein abundance (RBM15B; concentration: 10mM) of the same compound?
Its NP40-soluble protein abundance is 1.37 ± 0.096.

And the NP40-soluble protein abundance (SPATS2; concentration: 0.1mM)?
Its NP40-soluble protein abundance is 1.05 ± 0.19.

What about the NP40-soluble protein abundance (SPATS2; concentration: 0.5mM) of the same compound?
The NP40-soluble protein abundance was 0.927 ± 0.11.

And the NP40-soluble protein abundance (SPATS2; concentration: 1mM)?
Its NP40-soluble protein abundance is 0.916 ± 0.16.

And the NP40-soluble protein abundance (SPATS2; concentration: 2mM)?
Its NP40-soluble protein abundance is 1.01 ± 0.08.

What about the NP40-soluble protein abundance (SPATS2; concentration: 4mM) of the same compound?
The NP40-soluble protein abundance was 1 ± 0.19.

And the NP40-soluble protein abundance (SPATS2; concentration: 6mM)?
The NP40-soluble protein abundance was 0.988 ± 0.025.

And the NP40-soluble protein abundance (SPATS2; concentration: 8mM)?
Its NP40-soluble protein abundance is 1.11 ± 0.17.

What about the NP40-soluble protein abundance (SPATS2; concentration: 10mM) of the same compound?
Its NP40-soluble protein abundance is 1.12 ± 0.042.

And the NP40-soluble protein abundance (TBC1D10C; concentration: 0.1mM)?
The NP40-soluble protein abundance was 1.05 ± 0.11.

What about the NP40-soluble protein abundance (TBC1D10C; concentration: 0.5mM) of the same compound?
Its NP40-soluble protein abundance is 0.936 ± 0.067.

And the NP40-soluble protein abundance (TBC1D10C; concentration: 1mM)?
Its NP40-soluble protein abundance is 1.01 ± 0.032.

What about the NP40-soluble protein abundance (TBC1D10C; concentration: 2mM) of the same compound?
Its NP40-soluble protein abundance is 1.08 ± 0.097.

And the NP40-soluble protein abundance (TBC1D10C; concentration: 4mM)?
The NP40-soluble protein abundance was 1.005 ± 0.0028.

And the NP40-soluble protein abundance (TBC1D10C; concentration: 6mM)?
Its NP40-soluble protein abundance is 0.976 ± 0.065.

And the NP40-soluble protein abundance (TBC1D10C; concentration: 8mM)?
The NP40-soluble protein abundance was 1.07 ± 0.055.

And the NP40-soluble protein abundance (TBC1D10C; concentration: 10mM)?
Its NP40-soluble protein abundance is 1 ± 0.11.

What about the NP40-soluble protein abundance (TTC9C; concentration: 0.1mM) of the same compound?
The NP40-soluble protein abundance was 0.996 ± 0.1.

What about the NP40-soluble protein abundance (TTC9C; concentration: 0.5mM) of the same compound?
The NP40-soluble protein abundance was 1.06 ± 0.097.

And the NP40-soluble protein abundance (TTC9C; concentration: 1mM)?
Its NP40-soluble protein abundance is 0.925 ± 0.13.

And the NP40-soluble protein abundance (TTC9C; concentration: 2mM)?
Its NP40-soluble protein abundance is 0.917 ± 0.07.

And the NP40-soluble protein abundance (TTC9C; concentration: 4mM)?
Its NP40-soluble protein abundance is 0.961 ± 0.16.

What about the NP40-soluble protein abundance (TTC9C; concentration: 6mM) of the same compound?
Its NP40-soluble protein abundance is 1.02 ± 0.089.

And the NP40-soluble protein abundance (TTC9C; concentration: 8mM)?
The NP40-soluble protein abundance was 1.08 ± 0.033.

What about the NP40-soluble protein abundance (TTC9C; concentration: 10mM) of the same compound?
The NP40-soluble protein abundance was 1.07 ± 0.085.

What about the NP40-soluble protein abundance ([1]; concentration: 0.1mM) of the same compound?
The NP40-soluble protein abundance was 1.06 ± 0.094.

And the NP40-soluble protein abundance ([1]; concentration: 0.5mM)?
The NP40-soluble protein abundance was 0.985 ± 0.043.

And the NP40-soluble protein abundance ([1]; concentration: 1mM)?
Its NP40-soluble protein abundance is 1.07 ± 0.077.

What about the NP40-soluble protein abundance ([1]; concentration: 2mM) of the same compound?
The NP40-soluble protein abundance was 1.1 ± 0.052.
